PubChem BioAssay AID743454, Peter MacCallum Cancer Centre, 2014
The whole screen tested about 18,000 reagents; this is an unselected part. 450 of all reagents (2.5%) count as active. 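Single biological run; no consistent viability z cut-off exists, so the class columns, not z-scores, define the calls.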

Test: 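Genes whose loss kills vorinostat-resistant colon cancer cells under vorinostat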 (primary screen)
Cell system: human HCT116-VR colon cancer cells, selected for vorinostat resistance
Knock-down reagent: siRNA pool against human genes, 40 nM siRNA pool
Timing: vorinostat for 24 h, read-out about 72 h after transfection
Challenge: vorinostat at 2.5 µM final
Read-out: 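Two measures, CellTiter-Fluor viability and luminescent caspase 3/7 activity, each as fold change against same-plate mock wells, mean of duplicates, then screen-wide robust z-score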
Direction: viability robust z-score: higher = more viable cells than screen typical; caspase robust z-score: higher = more caspase 3/7 activity than screen typical
Hit rule: 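a knock-down is a hit when classed RV1 or RV2 for lowered viability, or CA1 or CA2 for caspase activation; those lethal without drug were dropped; hits were retested singly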

gene symbol	viability hit class	caspase hit class	viability robust z-score	caspase robust z-score	Outcome
BLID	no change	no change	-0.93	0.44	inactive
CYFIP1	no change	no change	-0.11	0.03	inactive
SLC25A48	no change	no change	0.12	-0.58	inactive
NPAT	no change	no change	0.41	-0.29	inactive
EZR	no change	no change	-1.14	1.06	inactive
RANBP9	no change	no change	-0.85	0.76	inactive
BDH2	no change	no change	0.26	-0.24	inactive
SLC25A4	no change	no change	0.4	-0.92	inactive
STX4	no change	no change	0.15	4.16	inactive
MRPS26	no change	no change	-0.34	-0.82	inactive
PMM2	no change	no change	-1.53	0.52	inactive
CBX5	no change	no change	-1.47	-0.56	inactive
ADGRL1	no change	no change	0.68	-0.77	inactive
SMN2	no change	no change	-1.45	-0.37	inactive
UBE2G1	no change	no change	-0.38	-0.07	inactive
MBIP	no change	no change	-3.45	-1.17	inactive
FAM53A	no change	no change	-0.97	1.84	inactive
PSMG2	no change	no change	1.35	1.45	inactive
NDUFB8	no change	no change	-1.65	-0.14	inactive
FAM32A	no change	no change	0.06	-0.42	inactive
MRPS16	no change	no change	0.04	0.25	inactive
LRRC3	no change	no change	-1.09	-0.71	inactive
CFAP141	no change	no change	-0.45	-0.88	inactive
PHC3	no change	no change	-0.3	-0.78	inactive
BMF	no change	no change	0.25	-0.15	inactive
GTF2A1	no change	no change	-0.43	0.16	inactive
INTS13	no change	no change	0.5	2	inactive
WNT3	no change	no change	-0.26	0.62	inactive
RGS10	no change	no change	1.66	1.61	inactive
ARHGAP24	no change	no change	0.74	0.08	inactive
FLCN	no change	no change	-1.02	-0.29	inactive
DCST1	no change	no change	0.3	-0.52	inactive
CHD5	no change	no change	-1.12	-0.04	inactive
OR6C75	no change	no change	0.04	1.36	inactive
DDHD2	no change	no change	-1.48	2.29	inactive
PLP2	no change	no change	0.4	-1.08	inactive
FBXW9	no change	no change	0.86	-0.18	inactive
TMED8	no change	no change	1	-0.5	inactive
HOXC8	no change	no change	-0.86	-0.68	inactive
PBXIP1	no change	no change	0.11	0.29	inactive
CLDN8	no change	no change	1	0.34	inactive
LINC01559	no change	no change	-0.01	1.86	inactive
OR5P2	no change	no change	-0.18	-1.01	inactive
CLEC18B	no change	no change	0.27	1.07	inactive
REM2	no change	CA2 (caspase activation)	-1.35	5.96	active
GAPT	no change	no change	0.57	-0.96	inactive
SAMD10	no change	no change	0.43	0.5	inactive
SYNDIG1	no change	no change	-0.65	-0.34	inactive
EIF2AK3	no change	no change	0.65	-0.2	inactive
ZNF30	no change	no change	0.3	-0.7	inactive
SNX4	no change	no change	-0.32	2.63	inactive
TMX2	no change	no change	-0.7	-0.92	inactive
TEX10	no change	no change	-0.53	-0.89	inactive
TDP1	no change	no change	-0.86	0.26	inactive
PDZD8	no change	no change	0.32	-0.89	inactive
PNOC	no change	no change	-0.44	-0.88	inactive
PPIL3	no change	no change	-0.26	-0.01	inactive

Laid out differently: results already given.
RANBP9
- viability hit class: no change
- caspase hit class: no change
- viability robust z-score: -0.85
- caspase robust z-score: 0.76
- Outcome: inactive

BDH2
- viability hit class: no change
- caspase hit class: no change
- viability robust z-score: 0.26
- caspase robust z-score: -0.24
- Outcome: inactive

SLC25A4
- viability hit class: no change
- caspase hit class: no change
- viability robust z-score: 0.4
- caspase robust z-score: -0.92
- Outcome: inactive

STX4
- viability hit class: no change
- caspase hit class: no change
- viability robust z-score: 0.15
- caspase robust z-score: 4.16
- Outcome: inactive

MRPS26
- viability hit class: no change
- caspase hit class: no change
- viability robust z-score: -0.34
- caspase robust z-score: -0.82
- Outcome: inactive
